According to PubChem BioAssay AID266 (DTP/NCI, 2004):
The list does not hold the whole screen: its compounds were picked by chemical class. Not every dose and run of a compound is shown. T/C gives the treated animals as a percentage of the vehicle group. Schedules are NCI's codes, read here as Q, the interval in days (D) or hours (H), X, the number of doses.

Tested on: Nude mice, LX-1 lung xenograft intrarenal, tumor weight T/C
Test: NCI In Vivo Anticancer Drug Screen. Data for tumor model Human Lung LX-1 Xenograft (intrarenal inoculation) in NU/NU BALB/C (nude) mice
Settings: T/C endpoint: mean tumor weight change, schedule: Q04DX003 (sc), vehicle: suspension in saline, evaluated on day 11, higher T/C = larger tumour
Protocol: The antitumor activity of compounds was measured in mice bearing transplantable tumors. Survival or tumor size were measured and the results are expressed as the measurement made in the treated group (T) divided by the measurement made in the vehicle treated control group (C). The tumor model used in this assay is Human Lung LX-1 Xenograft (intrarenal inoculation) in NU/NU BALB/C (nude) mice

Structure (SMILES): Cc1ccc(Sc2ccc([N+](=O)[O-])cc2[N+](=O)[O-])c([N+](=O)[O-])c1
- T/C (dose: 300.0 mg/kg/injection): 124 % of control
- T/C (dose: 600.0 mg/kg/injection): 128 % of control
- T/C (dose: 1200.0 mg/kg/injection): 121 % of control
- T/C (dose: 2400.0 mg/kg/injection): 123 % of control
